Laboratory results: the supplement of paper PMC10060354, “Discovery of a small molecule ligand of FRS2 that inhibits invasion and tumor growth” (Cellular Oncology, 2022)

Sequences of proteins named here, by UniProt entry; tags and fusion partners are left off. A change or cut given only in a name is not applied to a line headed by its entry.
UniProt Q16566: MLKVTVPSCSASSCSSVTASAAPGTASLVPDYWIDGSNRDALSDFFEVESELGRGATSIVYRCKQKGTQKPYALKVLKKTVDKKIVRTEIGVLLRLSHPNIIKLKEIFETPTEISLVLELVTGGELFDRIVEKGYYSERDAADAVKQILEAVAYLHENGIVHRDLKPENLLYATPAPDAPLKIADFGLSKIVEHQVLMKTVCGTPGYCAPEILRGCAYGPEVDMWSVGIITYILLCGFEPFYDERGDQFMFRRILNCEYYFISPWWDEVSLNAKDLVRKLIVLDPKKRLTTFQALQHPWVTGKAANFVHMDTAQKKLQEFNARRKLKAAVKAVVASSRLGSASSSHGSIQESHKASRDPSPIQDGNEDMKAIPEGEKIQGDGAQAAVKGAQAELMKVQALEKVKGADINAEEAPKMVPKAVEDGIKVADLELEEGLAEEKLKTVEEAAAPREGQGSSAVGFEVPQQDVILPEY
UniProt Q99733: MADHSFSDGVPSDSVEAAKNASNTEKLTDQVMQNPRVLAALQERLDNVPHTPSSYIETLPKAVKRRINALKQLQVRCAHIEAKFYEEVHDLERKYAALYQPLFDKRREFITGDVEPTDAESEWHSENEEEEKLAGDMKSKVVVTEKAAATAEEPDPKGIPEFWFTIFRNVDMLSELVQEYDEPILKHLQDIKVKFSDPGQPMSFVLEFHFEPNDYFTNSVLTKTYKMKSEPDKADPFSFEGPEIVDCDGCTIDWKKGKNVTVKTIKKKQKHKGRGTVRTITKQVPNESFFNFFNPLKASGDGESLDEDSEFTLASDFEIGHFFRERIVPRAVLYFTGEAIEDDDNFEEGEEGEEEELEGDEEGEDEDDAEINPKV
UniProt P05090: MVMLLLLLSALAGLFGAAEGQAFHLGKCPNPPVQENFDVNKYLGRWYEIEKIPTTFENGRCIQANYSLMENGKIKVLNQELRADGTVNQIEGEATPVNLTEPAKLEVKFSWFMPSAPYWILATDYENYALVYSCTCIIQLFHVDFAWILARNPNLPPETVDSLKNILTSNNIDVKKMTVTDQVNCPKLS
UniProt O95714: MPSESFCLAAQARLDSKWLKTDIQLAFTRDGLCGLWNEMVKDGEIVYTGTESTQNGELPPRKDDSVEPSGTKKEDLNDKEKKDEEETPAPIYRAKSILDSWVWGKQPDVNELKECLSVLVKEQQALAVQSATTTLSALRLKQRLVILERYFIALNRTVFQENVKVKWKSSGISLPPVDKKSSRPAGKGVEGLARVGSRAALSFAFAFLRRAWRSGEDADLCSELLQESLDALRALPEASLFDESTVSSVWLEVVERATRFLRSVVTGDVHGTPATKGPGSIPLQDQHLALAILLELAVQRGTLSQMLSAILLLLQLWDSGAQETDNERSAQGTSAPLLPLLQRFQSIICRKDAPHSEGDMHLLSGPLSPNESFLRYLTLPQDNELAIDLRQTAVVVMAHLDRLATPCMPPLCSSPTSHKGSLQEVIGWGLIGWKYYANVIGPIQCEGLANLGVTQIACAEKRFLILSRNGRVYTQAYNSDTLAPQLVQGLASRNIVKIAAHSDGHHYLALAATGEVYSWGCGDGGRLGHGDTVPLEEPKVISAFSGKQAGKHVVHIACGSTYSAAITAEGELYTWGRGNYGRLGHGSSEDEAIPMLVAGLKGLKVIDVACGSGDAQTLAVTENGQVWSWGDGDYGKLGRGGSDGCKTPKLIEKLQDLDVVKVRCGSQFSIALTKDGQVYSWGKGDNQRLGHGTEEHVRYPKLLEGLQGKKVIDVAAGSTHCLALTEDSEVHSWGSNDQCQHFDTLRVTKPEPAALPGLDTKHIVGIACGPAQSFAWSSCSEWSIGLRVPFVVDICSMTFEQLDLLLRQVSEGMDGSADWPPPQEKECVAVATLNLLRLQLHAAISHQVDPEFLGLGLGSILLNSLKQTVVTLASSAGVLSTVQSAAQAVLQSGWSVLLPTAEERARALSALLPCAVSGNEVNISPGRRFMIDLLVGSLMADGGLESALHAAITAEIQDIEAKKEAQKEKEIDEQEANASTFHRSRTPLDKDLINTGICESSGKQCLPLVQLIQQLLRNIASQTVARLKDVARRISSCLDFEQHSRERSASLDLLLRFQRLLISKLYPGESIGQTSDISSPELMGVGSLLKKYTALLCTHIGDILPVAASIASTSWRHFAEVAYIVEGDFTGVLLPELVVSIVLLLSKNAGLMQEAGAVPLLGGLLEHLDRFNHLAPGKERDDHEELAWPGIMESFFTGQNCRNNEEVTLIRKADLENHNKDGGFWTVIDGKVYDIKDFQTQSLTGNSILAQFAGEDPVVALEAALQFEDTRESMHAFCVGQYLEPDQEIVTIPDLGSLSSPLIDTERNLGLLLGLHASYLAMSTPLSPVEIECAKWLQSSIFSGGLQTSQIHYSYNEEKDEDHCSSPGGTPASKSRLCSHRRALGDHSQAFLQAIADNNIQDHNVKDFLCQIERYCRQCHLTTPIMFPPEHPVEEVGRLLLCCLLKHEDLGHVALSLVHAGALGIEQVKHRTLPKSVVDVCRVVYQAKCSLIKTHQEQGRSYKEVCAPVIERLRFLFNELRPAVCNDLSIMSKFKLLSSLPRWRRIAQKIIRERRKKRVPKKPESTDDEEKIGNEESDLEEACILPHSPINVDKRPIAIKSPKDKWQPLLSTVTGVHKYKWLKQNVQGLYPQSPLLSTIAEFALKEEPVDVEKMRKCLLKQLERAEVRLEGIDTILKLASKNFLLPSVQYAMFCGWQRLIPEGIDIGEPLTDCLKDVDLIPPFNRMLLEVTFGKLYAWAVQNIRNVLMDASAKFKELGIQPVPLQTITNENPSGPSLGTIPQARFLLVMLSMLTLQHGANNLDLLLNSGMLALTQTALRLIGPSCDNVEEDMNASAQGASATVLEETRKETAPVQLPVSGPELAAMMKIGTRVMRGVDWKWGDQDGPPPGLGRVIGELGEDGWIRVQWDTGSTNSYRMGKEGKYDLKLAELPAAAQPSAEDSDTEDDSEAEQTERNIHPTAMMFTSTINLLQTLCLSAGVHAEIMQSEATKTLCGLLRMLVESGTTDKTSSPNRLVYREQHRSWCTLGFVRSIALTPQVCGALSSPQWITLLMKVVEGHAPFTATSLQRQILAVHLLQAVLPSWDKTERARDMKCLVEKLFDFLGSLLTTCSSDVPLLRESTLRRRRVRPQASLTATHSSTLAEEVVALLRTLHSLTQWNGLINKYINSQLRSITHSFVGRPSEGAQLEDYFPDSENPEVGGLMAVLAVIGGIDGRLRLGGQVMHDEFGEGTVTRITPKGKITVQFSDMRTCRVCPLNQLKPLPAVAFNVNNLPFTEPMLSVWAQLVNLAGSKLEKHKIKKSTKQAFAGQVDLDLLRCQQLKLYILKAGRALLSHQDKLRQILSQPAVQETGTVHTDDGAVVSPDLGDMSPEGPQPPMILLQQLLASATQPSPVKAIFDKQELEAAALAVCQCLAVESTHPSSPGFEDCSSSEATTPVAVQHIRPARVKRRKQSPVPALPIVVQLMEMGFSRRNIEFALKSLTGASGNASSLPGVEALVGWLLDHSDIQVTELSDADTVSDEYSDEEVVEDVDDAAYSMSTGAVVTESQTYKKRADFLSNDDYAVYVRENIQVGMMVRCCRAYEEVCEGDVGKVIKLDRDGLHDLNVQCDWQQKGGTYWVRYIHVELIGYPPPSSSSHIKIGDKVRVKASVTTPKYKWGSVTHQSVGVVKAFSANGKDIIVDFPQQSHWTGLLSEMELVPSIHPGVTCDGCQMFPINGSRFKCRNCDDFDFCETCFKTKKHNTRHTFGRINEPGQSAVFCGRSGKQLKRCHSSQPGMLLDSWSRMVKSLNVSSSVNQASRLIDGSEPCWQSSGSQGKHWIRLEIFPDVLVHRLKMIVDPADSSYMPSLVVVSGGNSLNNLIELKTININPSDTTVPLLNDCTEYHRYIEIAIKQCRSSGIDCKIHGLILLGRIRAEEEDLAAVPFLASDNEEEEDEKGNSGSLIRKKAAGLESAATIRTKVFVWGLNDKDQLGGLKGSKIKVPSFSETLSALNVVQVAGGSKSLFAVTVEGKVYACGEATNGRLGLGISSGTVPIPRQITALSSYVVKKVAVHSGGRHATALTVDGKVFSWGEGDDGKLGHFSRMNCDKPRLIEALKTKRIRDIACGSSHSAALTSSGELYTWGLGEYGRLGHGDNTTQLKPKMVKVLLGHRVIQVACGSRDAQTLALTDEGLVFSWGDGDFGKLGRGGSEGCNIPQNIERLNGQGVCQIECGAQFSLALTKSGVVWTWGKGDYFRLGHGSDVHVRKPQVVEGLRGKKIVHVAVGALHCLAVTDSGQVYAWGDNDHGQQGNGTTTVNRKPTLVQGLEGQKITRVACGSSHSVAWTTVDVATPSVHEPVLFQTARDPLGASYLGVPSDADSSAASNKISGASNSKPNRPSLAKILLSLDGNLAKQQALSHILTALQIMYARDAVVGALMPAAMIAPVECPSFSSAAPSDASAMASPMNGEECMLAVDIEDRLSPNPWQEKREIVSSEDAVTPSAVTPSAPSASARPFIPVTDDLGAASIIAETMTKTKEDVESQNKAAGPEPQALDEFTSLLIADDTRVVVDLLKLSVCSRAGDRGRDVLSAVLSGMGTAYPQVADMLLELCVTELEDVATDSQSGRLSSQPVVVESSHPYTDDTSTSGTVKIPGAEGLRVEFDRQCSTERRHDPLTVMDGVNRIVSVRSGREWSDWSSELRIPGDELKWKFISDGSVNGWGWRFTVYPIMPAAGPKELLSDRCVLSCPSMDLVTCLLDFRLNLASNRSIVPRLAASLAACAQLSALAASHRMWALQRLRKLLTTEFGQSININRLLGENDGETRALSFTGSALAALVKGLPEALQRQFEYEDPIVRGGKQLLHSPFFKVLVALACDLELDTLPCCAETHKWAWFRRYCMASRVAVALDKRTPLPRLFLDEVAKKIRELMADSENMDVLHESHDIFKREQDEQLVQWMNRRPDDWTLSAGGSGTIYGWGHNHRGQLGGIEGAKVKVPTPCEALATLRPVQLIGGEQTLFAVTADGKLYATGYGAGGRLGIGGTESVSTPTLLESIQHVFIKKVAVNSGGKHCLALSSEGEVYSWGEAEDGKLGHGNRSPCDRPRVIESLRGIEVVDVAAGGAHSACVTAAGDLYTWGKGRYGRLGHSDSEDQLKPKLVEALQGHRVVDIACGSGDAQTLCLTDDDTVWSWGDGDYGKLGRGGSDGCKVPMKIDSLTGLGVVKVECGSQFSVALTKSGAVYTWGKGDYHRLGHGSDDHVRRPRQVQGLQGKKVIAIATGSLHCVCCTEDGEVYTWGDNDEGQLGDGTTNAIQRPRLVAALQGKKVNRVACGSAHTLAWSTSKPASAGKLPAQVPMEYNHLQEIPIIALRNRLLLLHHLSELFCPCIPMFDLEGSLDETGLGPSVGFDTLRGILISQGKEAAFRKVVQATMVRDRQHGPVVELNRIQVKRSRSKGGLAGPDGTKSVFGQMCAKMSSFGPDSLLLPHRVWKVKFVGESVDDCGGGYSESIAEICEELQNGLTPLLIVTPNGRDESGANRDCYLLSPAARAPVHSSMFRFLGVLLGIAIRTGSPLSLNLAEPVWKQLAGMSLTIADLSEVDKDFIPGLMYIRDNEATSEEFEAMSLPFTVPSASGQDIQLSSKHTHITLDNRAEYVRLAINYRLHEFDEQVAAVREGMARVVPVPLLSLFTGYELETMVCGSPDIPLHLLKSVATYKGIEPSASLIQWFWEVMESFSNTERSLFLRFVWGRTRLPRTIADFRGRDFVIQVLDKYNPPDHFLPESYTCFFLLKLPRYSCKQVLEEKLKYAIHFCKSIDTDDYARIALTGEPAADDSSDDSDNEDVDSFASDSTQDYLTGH
UniProt Q9UHW5, whole entry: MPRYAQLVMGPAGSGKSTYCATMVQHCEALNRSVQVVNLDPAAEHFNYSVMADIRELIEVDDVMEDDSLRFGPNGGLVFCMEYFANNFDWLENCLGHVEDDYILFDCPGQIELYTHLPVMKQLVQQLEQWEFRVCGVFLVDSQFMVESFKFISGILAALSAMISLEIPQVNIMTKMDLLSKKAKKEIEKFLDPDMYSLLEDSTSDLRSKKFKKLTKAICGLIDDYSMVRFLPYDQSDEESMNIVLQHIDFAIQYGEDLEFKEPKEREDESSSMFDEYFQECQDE
UniProt Q02127: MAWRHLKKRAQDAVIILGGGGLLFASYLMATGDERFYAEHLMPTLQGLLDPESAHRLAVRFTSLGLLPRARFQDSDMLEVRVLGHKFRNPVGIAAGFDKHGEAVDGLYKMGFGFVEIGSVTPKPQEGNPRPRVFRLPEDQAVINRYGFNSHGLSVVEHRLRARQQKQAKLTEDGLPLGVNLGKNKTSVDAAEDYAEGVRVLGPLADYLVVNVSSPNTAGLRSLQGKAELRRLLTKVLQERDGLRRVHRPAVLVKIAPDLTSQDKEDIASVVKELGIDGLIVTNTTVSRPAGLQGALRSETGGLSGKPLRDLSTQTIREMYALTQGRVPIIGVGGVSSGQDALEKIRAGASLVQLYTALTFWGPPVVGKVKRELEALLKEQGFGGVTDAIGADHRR

Compound: [O-][N+](C(C1=C(C(O)=C2)NC(C(C=C3)=CC=C3Cl)C4C1C=CC4)=C2Cl)=O
Test: melting temperature shift (compound 7 minus DMSO); higher = compound stabilises the protein
Settings: 10 µM
Description: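 Thermal proteome profiling (TMT mass spectrometry) in intact DAOY medulloblastoma cells or DAOY lysates treated with 10 µM compound 7 or DMSO, heated at 10 temperatures from 40.5 to 73.8 °C for 3 min. Melting curves were fitted with the Bioconductor TPP package, and the melting point difference between compound and vehicle is reported per protein (single curve per condition).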

[1] = system: intact DAOY cells, treatment time: 90 min, 37 °C
[2] = system: DAOY cell lysate, treatment time: 20 min, 4 °C

Target | melting temperature shift [1] [°C] | melting temperature shift [2] [°C]
UniProt Q9ULV0 | -0.38 | –
CCDC167 (UniProt Q9P0B6) | – | 1.93
UniProt O15231 | – | 2.93
CYB5R3 (UniProt P00387) | -0.403 | 0.851
UniProt Q13733 | -0.207 | –
RPL14 (UniProt P50914) | -0.597 | 0.596
COPG1 (UniProt Q9Y678) | 0.0855 | -0.694
TUT1 (UniProt Q9H6E5) | -3.95 | 1
UniProt Q6BAA4 | -1.71 | –
RAB7A (UniProt P51149) | -1.46 | 1.11
SLC19A1 (UniProt P41440) | -0.655 | 5.64
PROSER2 (UniProt Q86WR7) | -0.653 | -1.58
CLASRP (UniProt Q8N2M8) | – | -0.0176
MOSPD2 (UniProt Q8NHP6) | 0.849 | 0.149
UniProt Q9UPW0 | 0.0829 | –
PTP4A1 (UniProt Q93096) | -2.1 | –
GINS3 (UniProt Q9BRX5) | -1.44 | -0.0137
ALG1 (UniProt Q9BT22) | -2.6 | 1.07
UniProt Q8NDN9 | -0.259 | –
UniProt O14684 | 2.33 | 0.852
UBR7 (UniProt Q8N806) | 0.307 | 0.475
UniProt Q9NY87 | 2.37 | 0.448
PRMT3 (UniProt O60678) | -0.198 | -0.764

Target | melting temperature shift [1] [°C] | melting temperature shift [2] [°C]
SIN3A (UniProt Q96ST3) | -0.117 | -0.00973
PRCC (UniProt Q92733) | – | -0.495
CHD8 (UniProt Q9HCK8) | 2.99 | -1.32
TMF1 (UniProt P82094) | – | 3.3
CC2D1B (UniProt Q5T0F9) | -0.534 | 0.786
DDX50 (UniProt Q9BQ39) | 2.04 | 0.708
MYBBP1A (UniProt Q9BQG0) | -0.881 | -0.307
GLTSCR2 (UniProt Q9NZM5) | -0.481 | -0.275
PROSC (UniProt O94903) | -0.571 | 0.33
UniProt P43365 | – | -1.21
UniProt Q14627 | 0.115 | -0.258
AP1S1 (UniProt P61966) | -0.181 | 0.196
UniProt Q96GP6 | -0.43 | –
SELENBP1 (UniProt Q13228) | – | 1.26
ATL2 (UniProt Q8NHH9) | -0.139 | 0.867
SEC24D (UniProt O94855) | -0.235 | -0.579
UniProt A6NFQ2 | 1.98 | -0.344
UniProt P53677 | – | -1.38
CAMK4 (UniProt Q16566) | -1.91 | -2.89
PML (UniProt P29590) | -0.306 | 0.157
UniProt Q96BZ9 | – | -0.0922
C17ORF75 (UniProt Q9HAS0) | -0.263 | -0.67
UniProt Q8IUQ4 | – | -3.7

Target | melting temperature shift [1] [°C] | melting temperature shift [2] [°C]
NAP1L4 (UniProt Q99733) | -0.0609 | -0.878
MCM6 (UniProt Q14566) | -1.37 | -0.436
DHCR7 (UniProt Q9UBM7) | -1.47 | 0.61
RABIF (UniProt P47224) | -1.48 | -0.532
ATR (UniProt Q13535) | -2.01 | -1.57
UniProt Q7Z7A4 | – | -1.08
AP3D1 (UniProt O14617) | -0.852 | -0.8
PDP1 (UniProt Q9P0J1) | -1.16 | 1.79
SERPINB6 (UniProt P35237) | -0.377 | -1.08
PCMT1 (UniProt P22061) | -0.274 | -0.608
UniProt P05090 | – | 1.83
CHCHD2 (UniProt Q9Y6H1) | 0.0827 | 0.477
SCPEP1 (UniProt Q9HB40) | -1.84 | 0.0633
GNB4 (UniProt Q9HAV0) | – | 2.09
UniProt O43639 | -0.181 | -1.11
CCDC134 (UniProt Q9H6E4) | -0.215 | -0.231
TAOK3 (UniProt Q9H2K8) | -0.299 | -0.758
HERC2 (UniProt O95714) | 0.834 | 0.0135
PSMA7 (UniProt O14818) | 0.066 | 0.243
GPN3 (UniProt Q9UHW5) | -2.75 | -0.163
PCYOX1 (UniProt Q9UHG3) | -0.457 | 1.18
NUP98 (UniProt P52948) | 0.731 | -0.355
CCDC51 (UniProt Q96ER9) | -0.237 | 1.9

A second format for part of the listing above.

| Target | melting temperature shift [1] [°C] | melting temperature shift [2] [°C] |
| --- | --- | --- |
| MCM6 (UniProt Q14566) | -1.37 | -0.436 |
| DHCR7 (UniProt Q9UBM7) | -1.47 | 0.61 |
| RABIF (UniProt P47224) | -1.48 | -0.532 |
| ATR (UniProt Q13535) | -2.01 | -1.57 |
| UniProt Q7Z7A4 | – | -1.08 |

The listing continues:

Target | melting temperature shift [1] [°C] | melting temperature shift [2] [°C]
UniProt P0DN79 | -3.18 | -0.425
FBXL20 (UniProt Q96IG2) | -0.464 | -1.07
DEGS1 (UniProt O15121) | – | -1.19
LLGL1 (UniProt Q15334) | 0.986 | -1.25
UniProt P16520 | -3.02 | 3.63
IVNS1ABP (UniProt Q9Y6Y0) | 4.03 | 0.84
CLTCL1 (UniProt P53675) | 0.68 | –
UniProt O60318 | – | 2.72
P30462 (UniProt P01889) | – | 1.49
EIF2A (UniProt Q9BY44) | 0.152 | 0.126
EXOC6 (UniProt Q8TAG9) | – | -2.8
UniProt Q96SL4 | – | -1.26
ACSL1 (UniProt P33121) | 3.38 | 0.373
TBC1D22A (UniProt Q8WUA7) | – | -0.891
FNBP4 (UniProt Q8N3X1) | – | 1.71
ALDOA (UniProt P04075) | 0.573 | 0.325
AFAP1 (UniProt Q8N556) | 0.534 | 0.99
UniProt Q8IYT4 | 0.235 | –
SDF2 (UniProt Q99470) | 0.576 | 0.114
DHODH (UniProt Q02127) | – | 0.922
NAT6 (UniProt Q93015) | 4.87 | –
DAXX (UniProt Q9UER7) | -0.198 | -0.35
UBE2M (UniProt P61081) | -0.314 | -0.448

Target | melting temperature shift [1] [°C] | melting temperature shift [2] [°C]
TMX1 (UniProt Q9H3N1) | -1.93 | 0.921
UniProt Q9BRV8 | – | -0.0199
UniProt O75923 | 0.164 | –
ZNHIT2 (UniProt Q9UHR6) | 1.67 | 1.51
MYOF (UniProt Q9NZM1) | 0.157 | 1.38
AGO2 (UniProt Q9UKV8) | 0.523 | 0.942
UniProt P02649 | – | -3.23
RANBP2 (UniProt P49792) | 1.13 | -0.542
MTCH1 (UniProt Q9NZJ7) | -0.379 | -0.0428
NOMO2 (UniProt Q5JPE7) | -0.189 | –
WNK1 (UniProt Q9H4A3) | -0.848 | -0.66
TMEM87B (UniProt Q96K49) | 4.08 | –
TMEM33 (UniProt P57088) | -2.37 | -0.139
PSMC5 (UniProt P62195) | -1.74 | -0.371
WDR82 (UniProt Q6UXN9) | 1.54 | -0.537
CAD (UniProt P27708) | -0.411 | -0.526
CSNK2B (UniProt P67870) | -0.663 | -0.172
ADAR (UniProt P55265) | -0.932 | 0.321
PCID2 (UniProt Q5JVF3) | -1.37 | -1.2
COPB2 (UniProt P35606) | 0.0865 | -0.388
UQCRC2 (UniProt P22695) | 0.855 | 1.27
RC3H1 (UniProt Q5TC82) | – | -2.45

Repeats are few or missing, and single values can be far off.
